Assay results reported in US20140023585A1, “177 LUTETIUM-LABELED BOMBESIN ANALOGS FOR RADIOTHERAPY” (UNIVERSITATSSPITAL BASEL, priority 2010, published 2014).
At least one peptide structure holds a part that was inferred or is arguable (an end, a ring closure or a residue).

Assays:
PC-3 tumors [1] = assay: Radionuclide therapy study with single injection; assay type: in vivo, mice; conditions: single injection of 37 MBq on day four, 2 repeated studies
PC-3 tumors [2] = assay: Radionuclide therapy study with repeated injections; assay type: in vivo, nude mice; conditions: fifty days after treatment was initiated
Method: A first therapy study was conducted on 25 nude mice (15-20 g) subcutaneously implanted with PC-3 ([…]). For toxicity study the same therapy protocol was applied to 25 CD1 mice. Thirteen days after implantation the mice were randomly divided in 5 groups and treated as described below: • 1. […] 200 pmol of ^natcompound 2 • 5. PBS
According to the protocol agreed upon, three injections per week (days 0, 2, 4) were done and the procedure was repeated (days 14, 16, 18) after one pause week. Based on the biodistribution data of compound 3 with ^111In we observed that injections after 48 h would maintain stable the uptake in the tumor. The pause week is, in our opinion, important for the safety of the animals. The mice were periodically monitored by measuring tumor size and body mass. Animals with loss of >20% of their original weight or with tumor size >20 mm in diameter were sacrificed. Tumor sizes were determined by caliper measurements in two dimensions and tumor volumes were calculated assuming an elliptical shape.

## CC(C)C[C@H](NC(=O)C[C@H](O)[C@H](CC(C)C)NC(=O)[C@H](Cc1c[nH]cn1)NC(=O)CNC(=O)[C@@H](NC(=O)[C@H](C)NC(=O)[C@H](Cc1c[nH]c2ccccc12)NC(=O)[C@H](CCC(N)=O)NC(=O)[C@@H](Cc1ccccc1)NC(=O)CN1CCC(NC(=O)CN2CCN(CC(=O)O)CCN(CC(=O)O)CCN(CC(=O)O)CC2)CC1)C(C)C)C(N)=O [compound 2, [^177Lu]-DOTA-4-amino-1-carboxymethylpiperidine-D-Phe-Gln-Trp-Ala-Val-Gly-His-Sta-Leu-NH2, metal not drawn]
PC-3 tumors [1]
  effect on PC-3 tumor growth: confirmed
PC-3 tumors [2]; 200 pmol/12 MBq (second group)
  animals with fast regrowing of the tumor: 2
PC-3 tumors [2]; 400 pmol/24 MBq (third group)
  animals with fast regrowing of the tumor: 1
